In patent publication US12006373B1 (Board of Trustees of the University of Alabama, for and on …, priority 2020, dated 2024):

Assay: peptide made by a vendor (Fmoc solid-phase peptide synthesis)
Details: whole synthesis

WSLGYTGGGGS-PEG6-K-Biotin
purity (crude or final not stated): >98% purity
